Measurements reported in PubChem BioAssay AID493246 (Drosophila RNAi Screening Center, 2011).
The screen tested about 21,000 reagents; this is an unselected part of those with a known target gene and a result. Over the whole deposit, 429 (2%) are marked active. 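Values are raw and not normalised between plates; calls rest on per-plate z-scores that were not deposited.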 Entries without a mark were called inactive. Names joined by + are all predicted targets of the reagent. Not stated in the record: the amount of reagent, the time to read-out.

- Test: 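Identify essential fly genes by loss of cell viability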 (primary screen)
- Cell system: Drosophila Kc and S2R+ cells
- Reagents: long dsRNA against Drosophila genes
- Measured: 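Raw, unnormalised count of remaining cells in each well; per-plate z-scores of cell number underlie the calls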
- Direction: Kc cell number and S2R+ cell number: higher = more cells remaining
- Call rule: 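Active when the per-plate z-score of cell number is 3 or more in the direction of fewer cells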

The first 2 records, to show the layout:
gene,amplicon,"Kc cell number, rep 1","Kc cell number, rep 2","S2R+ cell number, rep 1","S2R+ cell number, rep 2"
pn,DRSC18822,5.36e5,,8.05e5,
CG2701,DRSC18590,5.31e5,,8.36e5,

The listing, from the start:
gene,amplicon,"Kc cell number, rep 1","Kc cell number, rep 2","S2R+ cell number, rep 1","S2R+ cell number, rep 2"
pn,DRSC18822,5.36e5,,8.05e5,
CG2701,DRSC18590,5.31e5,,8.36e5,
soti,DRSC16432,1.63e6,1.79e6,1.37e6,1.43e6
CG15345 (retired record),DRSC18030,1.51e6,1.62e6,1.10e6,1.18e6
Npc2h,DRSC14297,1.54e6,1.58e6,1.03e6,1.18e6
corto,DRSC12375,1.89e6,1.78e6,1.42e6,1.40e6
ATPsynG,DRSC02928,1.57e6,1.58e6,8.94e5,1.01e6
CG13671,DRSC10030,1.42e6,1.44e6,1.31e6,1.19e6
CG6005,DRSC15945,1.45e6,1.59e6,1.14e6,1.18e6
msn,DRSC07990,1.40e6,1.38e6,9.39e5,1.08e6
msn,DRSC08498,1.40e6,1.37e6,1.04e6,1.20e6
CG15539,DRSC15075,1.53e6,1.54e6,1.01e6,1.08e6
CG42500,DRSC14822,1.50e6,1.17e6,9.78e5,9.64e5
Afg3l2,DRSC10657,1.64e6,1.69e6,9.30e5,1.05e6
Top3alpha,DRSC03460,1.58e6,1.65e6,1.34e6,4.16e5
CG7139,DRSC11611,1.48e6,1.53e6,1.18e6,1.27e6
LpR1,DRSC15665,5.35e5,,7.78e5,
LpR1,DRSC15669,1.42e6,1.54e6,9.54e5,1.05e6
LpR1,DRSC15670,1.58e6,1.64e6,9.92e5,1.07e6
Spn43Ad,DRSC06770,1.46e6,1.54e6,1.28e6,1.37e6
CG10465,DRSC04848,1.54e6,1.56e6,1.19e6,1.29e6
RhoGAP100F,DRSC15409,4.71e5,,7.57e5,
Cbs,DRSC20553,1.39e6,1.45e6,1.04e6,1.18e6
CG11384,DRSC18628,1.70e6,1.79e6,1.12e6,1.27e6
Sec24CD,DRSC00300,8.52e5,1.19e6,3.17e5,3.48e5
Art3,DRSC16065,1.50e6,1.56e6,1.34e6,1.40e6
CG10600,DRSC02074,1.28e6,1.32e6,1.26e6,1.29e6
RpL27,DRSC15638,1.01e6 (active),1.07e6,5.77e5,6.79e5
CG12935 + Nop10,DRSC07025,1.73e6,1.84e6,1.28e6,1.41e6
CG4995,DRSC02801,1.47e6,1.47e6,1.16e6,1.20e6
CPT2,DRSC08553,1.20e6,1.56e6,1.09e6,1.17e6
CG31776,DRSC00716,1.53e6,1.43e6,1.16e6,1.29e6
CG15696,DRSC15118,1.29e6,1.34e6,1.06e6,1.08e6
CSN8,DRSC02257,1.47e6,1.52e6,6.85e5,8.66e5
Ir54a + sub,DRSC06459,1.55e6,1.54e6,1.27e6,1.40e6
DCTN4-p62,DRSC06101,9.31e5,9.68e5,7.64e5,6.60e5
phtf,DRSC05023,1.43e6,1.56e6,1.16e6,1.18e6
CG7179,DRSC03020,1.66e6,1.65e6,1.21e6,1.39e6
scramb1,DRSC09724,1.47e6,1.49e6,1.42e6,1.51e6
scramb1,DRSC10667,1.26e6,1.26e6,1.38e6,1.43e6
scramb1,DRSC10668,1.39e6,1.53e6,1.42e6,1.50e6
